The list shows a part of the results. These are further read-outs of the screen, such as a control signal, another cell line or another target. No call is given for them. The list favours compounds with an active or inconclusive main result. The note in brackets gives the kind of curve behind each potency; many fits are weak.

A short description of the experiment: qHTS Assay for Lipid Storage Modulators in Drosophila S3 Cells.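 As to cell number change: cells counted by Cell Tracker Red CMTPX staining in the red channel.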 The settings on record: BODIPY lipid droplet fluorescence, 18-24 h; for cell number change: measured here: cell count max response, cells fed with added oleic acid. A digest of the protocol: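 Laser-scanning cytometry quantifies lipid droplet accumulation (500–530 nm total intensity; droplet/cell object ratio) in oleic acid-fed (400 uM added) Drosophila S3 cells treated with a concentration series. 20 uM Triacsin C defined 100% inhibition.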
(In general: In qHTS, concentration-response curves come from the screen itself.)

The mark [1] stands for this setting: measured here: lipid fluorescence (Fed channel) AC50, cells fed with added oleic acid.
The mark [2] stands for this setting: measured here: cell number channel AC50, cells fed with added oleic acid.

As usually defined, the AC50 is the concentration at which the activity in the assay is half-maximal. A high value points to weaker potency. Turning to `COc1ccc(-c2nc(CS(=O)CC(=O)NCCC3=CCCCC3)c(C)o2)cc1` (configuration not stated), the cell number change turned out to be 4.66%. Besides, the AC50 under setting [1] is 0.366 µM [falling, partial curve].
For `O=C(CN1CCN(Cc2cccc3ccccc23)CC1)NCCc1ccccc1`, the cell number change is -14.5%. The AC50 under setting [2] is 0.259 µM [falling, partial curve, poor fit].
On to `Cc1ccccc1OCc1nc2ccccc2n1C`, for which the cell number change is -27.7%. Moreover, the AC50 under setting [1] is 29.1 µM [falling, single point].
For the molecule `CN(Cc1ccc(F)cc1)C(=O)c1cccc(OC2CCN(C3CCCC3)CC2)c1`, the cell number change was found to be 1.57%. For the same molecule, under setting [1], the AC50 was 2.91 µM [rising, full curve].
Consider `Nc1csnc1C(=O)O`, for which the cell number change was -9.12%. Further, under setting [1], the AC50 is 0.231 µM [falling, full curve, poor fit].
Regarding `O=S1(=O)CCOC[C@H](CC2CCCCC2)N1Cc1ccccc1`, the cell number change came out at 0.299%. Also, the AC50 under setting [1] was 1.16 µM [falling, single point].
For the molecule `COc1cccc(C(=O)NCC(=O)N/N=C/c2ccc3c(c2)OCO3)c1`, the cell number change was 58.3%. Also, the AC50 under setting [2] was 14.6 µM [rising, partial curve, poor fit]. For the same molecule, the AC50 under setting [1] is 29.1 µM [falling, single point].
As for `Cn1nnc2cc(C(=O)Nc3ccccc3F)ccc21`, the cell number change is -6.58%.
For the molecule `CC(C(=O)N1CCc2ccccc21)N1CCN(c2ccccn2)CC1` (configuration not stated), the AC50 under setting [1] is 6.51 µM [falling, single point].
In the case of `Cc1cc(C)c2nc(NC(=O)c3ccc(OCC4CCCO4)cc3)sc2c1` (configuration not stated), the cell number change was -27.9%. For the same molecule, the AC50 under setting [1] is 29.1 µM [rising, single point].
Consider `Cc1cccc(N(C(=O)CNC(=O)c2ccco2)C(C(=O)NC2CCCC2)c2cccnc2)c1` (configuration not stated), for which the cell number change turned out to be 4.53%.
For the molecule `CCC(CC)c1nnc(NC(=O)c2ccco2)s1`, the cell number change is 16%. The AC50 under setting [1] is 29.1 µM [falling, single point].
Turning to `O=C1NC(=Nc2ccccc2)c2ccc([N+](=O)[O-])cc21`, the cell number change was -45.3%. For the same molecule, the AC50 under setting [2] is 29.1 µM [falling, single point].
`COc1ccc(C(=O)NC2CC(C)(C)Cc3c2cnn3-c2ccccc2C)c(OC)c1OC` (configuration not stated): the cell number change is 5.78%. Also, the AC50 under setting [1] is 6.51 µM [rising, single point].
As for `Cc1cc(C)c(C)c(OCCNCc2ccccc2)c1`, the cell number change was -31.5%. Also, the AC50 under setting [2] was 29.1 µM [falling, single point]. Further, the AC50 under setting [1] was 3.66 µM [falling, full curve].
Regarding `CCOC(=O)c1c(NC(=O)CN(CC)CC)sc2c1CCC2`, the cell number change is -34%. For the same molecule, under setting [2], the AC50 is 13 µM [falling, partial curve, poor fit].
With `CCOC(=O)c1c(C)sc2c1N(C(=O)CN(CC)CC)c1cc(Cl)ccc1S2`, the AC50 reads like this: under setting [2], 3.26 µM [rising, single point]; under setting [1], 0.58 µM [rising, single point].
`Cc1cccc(C)c1NC(=O)C(c1ccccc1)N1CCN(C(=O)c2ccco2)CC1` (configuration not stated): the AC50 under setting [2] was 1.16 µM [rising, full curve, poor fit].
Turning to `Cc1oc2ccc(OCc3ccccc3Cl)cc2c1C(=O)O`, the cell number change came out at 91.9%. The AC50 under setting [2] was 11.6 µM [rising, partial curve]. For the same molecule, the AC50 under setting [1] was 29.1 µM [rising, single point].
In the case of `O=C(Nc1cccc2ncccc12)c1ccco1`, the cell number change is -1.67%. In addition, the AC50 under setting [1] was 29.1 µM [rising, single point].
For the molecule `O=C1CC(N2CCN(S(=O)(=O)c3cccc(C(F)(F)F)c3)CC2)C(=O)N1Cc1ccccc1` (configuration not stated), the cell number change is -37.3%. Further, the concentration at half-maximal activity (AC50) under setting [2] is 29.1 µM [falling, single point].
For `Cc1cccc2sc(NC(=O)[C@H](C)N3C(=O)C4CC=CCC4C3=O)nc12` (some centres not stated), the cell number change was -55.3%. The AC50 under setting [2] is 6.51 µM [falling, full curve]. For the same molecule, the AC50 under setting [1] was 6.51 µM [falling, single point].
In the case of `CCOC(=O)c1ccc(NC(=O)CCOc2ccc(OC)cc2)cc1`, the AC50 under setting [2] was 6.51 µM [falling, single point].
As to `O=C(CNC(=O)c1ccc(Br)cc1)NCCc1nc2ccccc2[nH]1`, the cell number change is 23.3%.
For `O=C(c1c(Cl)nc2sccn12)N(C(=O)c1c(Cl)nc2sccn12)c1ccc(Cl)cn1`, the cell number change is -1.55%.
For `Cc1cc(Cl)n2c(nc3ccccc32)c1C#N`, the cell number change was -128%. Also, under setting [2], the AC50 was 29.1 µM [falling, single point]. Under setting [1], the half-maximal activity concentration (AC50) was 29.1 µM [falling, partial curve].
As to `Cc1[nH]c2ccccc2c1NC(=O)CN1CCN(Cc2ccc3c(c2)OCO3)CC1`, the cell number change was found to be 41.5%. Further, the AC50 under setting [2] is 5.17 µM [rising, partial curve].
`COc1ccc(CC(NC(C)=O)C(=O)N2CCN(C(=O)Nc3ccc(Cl)cc3)CC2)cc1OC` (configuration not stated): the cell number change was determined as 15.7%. The AC50 under setting [1] was 7.31 µM [rising, partial curve].
For the molecule `N#Cc1c(NC(=O)CSc2nnc(-c3ccccc3O)n2-c2ccccc2)sc2c1CCCC2`, the cell number change turned out to be 14.4%.
For the molecule `COCCCN1C(=O)C2C(C(=O)Nc3cc(C)cc(C)c3)C3C=CC2(O3)C1C(=O)NC1CCCCC1` (configuration not stated), the cell number change is -4.03%. Besides, the AC50 under setting [1] was 25.9 µM [falling, single point].
Regarding `O=C(c1ccc(Br)o1)N1CCN(CCc2ccncc2)CC1`, the cell number change was -14.8%.
Take `O=Nc1c(O)n(Cc2ccc(Cl)c(Cl)c2)c2ccccc12`: the cell number change was -53%. In addition, the AC50 under setting [2] is 11.6 µM [falling, partial curve, poor fit].
`COc1ccc(CCNC(=O)c2ccccc2OCc2c(C)noc2C)cc1`: the cell number change came to 28.7%. Further, the AC50 under setting [1] is 0.651 µM [rising, partial curve].
Regarding `COc1ccc(CCNC(=O)c2c(C)nn(-c3ccccc3)c2Cl)cc1`, the cell number change came to 43%. Further, the AC50 under setting [2] is 20.6 µM [rising, single point]. Further, the AC50 under setting [1] was 18.4 µM [rising, single point].
`Cc1ccccc1NC(=O)C1Cc2ccccc2CN1C(=O)OCc1ccccc1` (configuration not stated): the cell number change stood at 21.6%. The AC50 under setting [1] is 7.31 µM [rising, partial curve].
With `CC(=O)NC(NC(=S)Nc1c(C)n(C)n(-c2ccccc2)c1=O)C(Cl)(Cl)Cl` (configuration not stated), the cell number change is -47.5%. For the same molecule, the AC50 under setting [1] was 5.17 µM [falling, full curve].
For `CN1/C(=C\C=[N+](C)c2ccccc2)C(C)(C)c2ccccc21`, the cell number change was -20.7%.
Turning to `Fc1ccccc1COc1cccc(/C=N/n2cnnc2)c1`, the cell number change is -13.4%.
On to `CCOC(=O)N1CCN(c2ncnc3c2oc2nc(C)c4c(c23)CC(C)(C)OC4)CC1`, for which the cell number change amounted to 13.9%. Further, under setting [1], the AC50 is 2.31 µM [rising, single point].
On to `CCOC(=O)C(=O)c1c(-c2ccccc2)nc2ccccn12`, for which the cell number change is 21.3%. Moreover, the AC50 under setting [1] was 6.51 µM [falling, single point].
For the molecule `CCOc1ccc(CNC(=O)C2Cc3cc(S(=O)(=O)N4CCCC4)ccc3N2C(C)=O)cc1` (configuration not stated), the cell number change is 14.2%. Under setting [1], the AC50 is 29.1 µM [rising, single point].
Consider `COc1ccc(C(C)=O)cc1COc1cc(C)c(Cl)c(C)c1`, for which the cell number change is 15.5%. The AC50 under setting [1] was 2.59 µM [rising, full curve, poor fit].
On to `COC(=O)c1cnn2c(C(F)(F)F)cc(-c3ccco3)nc12`, for which the AC50 under setting [2] was 3.66 µM [rising, partial curve, poor fit].
For the molecule `CC12CCC(C(=O)NCc3ccccn3)(OC1=O)C2(C)C` (configuration not stated), the AC50 under setting [1] was 18.4 µM [rising, single point].
`O=C(CN1CCN(C(=O)N2CCOCC2)CC1)Nc1cc(Cl)ccc1Cl`: the cell number change is 18.5%. The AC50 under setting [1] was 6.51 µM [falling, single point].
`Cc1ccc(C(C)C)c(OC/C(O)=C(\C#N)c2nc3ccccc3[nH]2)c1`: the cell number change stood at 31.9%. Besides, the AC50 under setting [2] is 0.00461 µM [rising, full curve, poor fit]. The AC50 under setting [1] is 29.1 µM [rising, partial curve, poor fit].
In the case of `COc1ccc(OC)c(N(CC(=O)NC2CCCCCC2)S(=O)(=O)c2ccc(C)cc2)c1`, the cell number change was -7.62%. The AC50 under setting [1] was 16.4 µM [falling, single point].
Regarding `COc1ccc(/C=C/C(=O)OCC(=O)c2ccc(S(=O)(=O)N3CCCCC3)cc2)cc1OC`, the AC50 under setting [2] is 4.61 µM [falling, single point].
For the molecule `CC1Cc2ccccc2N1CC(=O)N(C)c1c(N)n(Cc2ccccc2)c(=O)[nH]c1=O` (configuration not stated), the cell number change came out at 8.46%. Moreover, the AC50 under setting [2] was 1.64 µM [rising, full curve, poor fit].
Turning to `N#Cc1c(SCC(=O)O)nc(N2CCCCC2)c2c1CCCC2`, the AC50 under setting [2] is 2.31 µM [rising, single point].
Regarding `Cc1cc(C(=O)N/N=C/c2cccc(Cl)c2Cl)no1`, the cell number change was 27.6%. In addition, under setting [1], the AC50 was 2.06 µM [rising, partial curve].
Take `O=C(NC1CCCCC1)C(c1ccccc1)N(Cc1ccco1)C(=O)c1csnn1` (configuration not stated): the cell number change turned out to be 6.31%. Further, the AC50 under setting [1] is 6.51 µM [falling, single point].
In the case of `CC(=O)Nc1ccc(S(=O)(=O)NC2=C(N3CCN(C)CC3)C(=O)c3ccccc3C2=O)cc1`, the cell number change is -6.11%. For the same molecule, the AC50 under setting [1] was 29.1 µM [rising, single point].
Turning to `Cc1onc(-c2ccccc2Cl)c1C(=O)N(C)C1CCCCC1`, the cell number change is -53%. In addition, under setting [2], the AC50 was 20.6 µM [falling, single point]. In addition, the AC50 under setting [1] was 20.6 µM [falling, single point].
Take `O=C(c1cc(-c2ccccc2)on1)N1CCN(Cc2ccc3c(c2)OCO3)CC1`: the cell number change amounted to 52.9%. Also, the AC50 under setting [2] is 13 µM [rising, partial curve, poor fit].
For `Cc1ccc(S(=O)(=O)c2cc3c(=O)n4ccccc4nc3n(CCCN3CCOCC3)c2=N)cc1C`, the cell number change was determined as 1.83%.
As to `COc1cccc(NC(=O)C2CC(=O)OC23CCOC(C)(C)C3)c1` (configuration not stated), the cell number change came out at 10.6%. Further, the AC50 under setting [2] was 0.731 µM [falling, single point].
Regarding `COc1ccc(-n2c(O)c(/C=N/Nc3nc(C)cc(C)n3)c3ccccc3c2=O)cc1OC`, the cell number change is -11.6%.
Regarding `CCOc1ccc(CC(C(N)=O)C(N)=O)cc1`, the cell number change is -0.733%. For the same molecule, the AC50 under setting [1] is 3.66 µM [falling, single point].
As to `CCOC(=O)c1nnc(-c2ccc(C)cc2)nc1Oc1ccccc1Cl`, the AC50 under setting [1] is 2.06 µM [falling, partial curve].
`COc1ccccc1C(CNC(=O)c1ccc(NS(=O)(=O)c2ccc(F)c(C)c2)cc1)N1CCCC1` (configuration not stated): the cell number change was 41.2%. Besides, under setting [2], the AC50 was 13 µM [rising, partial curve, poor fit].

The values are drawn from PubChem BioAssay AID2685 (National Center for Advancing Translational Sciences (NCATS), 2010).
